Data as given in patent publication US11000037B2, “Benzylamide compound, method for producing the same, and miticide” (OAT AGRIO CO., LTD., priority 2016, dated 2021).
Some of these results come from one statement about several compounds together.

test system: two-spotted spider mites; experiment: Ovicidal test on two-spotted spider mites (Test Example 2); type: in vivo; conditions: at 500 ppm (method: 200 ppm formulation, 2 ml sprayed); 6 days after the spraying

Row | Structure (SMILES) | ovicidal rate of the two-spotted spider mites (mortality)
1 | Cc1cc(F)c(NC(=S)Cc2ccc(-c3ccc(Cl)c(Cl)c3)cc2)cc1SCC(F)(F)F [Compound 1B-26] | ≥ 50%
2 | Cc1cc(F)c(NC(=O)Cc2ccc(SCC(F)(F)F)cc2)cc1SCC(F)(F)F [Compound 1B-22] | ≥ 50%
3 | Cc1cc(F)c(NC(=O)Cc2ccc(SC(C)C)cc2)cc1SCC(F)(F)F [Compound 1B-3, N-(2-fluoro-4-methyl-5-((2,2,2-trifluoroethyl)thio)phenyl)-2-(4-(isopropylthio)phenyl)acetamide] | ≥ 50%
4 | Cc1cc(F)c(NC(=O)Cc2ccc(-c3ccc(F)c(F)c3F)cc2)cc1SCC(F)(F)F [Compound 1B-20] | ≥ 50%
5 | Cc1cc(F)c(NC(=S)Cc2ccc(OC(F)(F)F)cc2)cc1SCC(F)(F)F [Compound 1B-28] | ≥ 50%
6 | Cc1cc(F)c(NC(=O)Cc2cccc(-c3cccc(Cl)c3Cl)c2)cc1SCC(F)(F)F [Compound 1B-66] | ≥ 50%
7 | Cc1cc(F)c(N(C)C(=O)Cc2ccc(SC(C)C)cc2)cc1SCC(F)(F)F [Compound 1B-8] | ≥ 50%
8 | Cc1cc(F)c(NC(=S)Cc2ccc(Cl)cc2)cc1SCC(F)(F)F [Compound 1B-25] | ≥ 50%
9 | Cc1cc(F)c(N(C)C(=O)Cc2ccc(C(C)C)cc2)cc1SCC(F)(F)F [Compound 1B-9] | ≥ 50%
10 | Cc1cc(F)c(NC(=O)Cc2ccc(-c3ccccc3)cc2)cc1SCC(F)(F)F [Compound 1A-65] | ≥ 50%
11 | Cc1cc(Br)c(N(C)C(=O)Cc2ccc(C(F)(F)F)cc2)cc1SCC(F)(F)F [Compound 1A-52] | ≥ 50%
12 | Cc1cc(F)c(N(C)C(=O)Cc2cccc(-c3ccc(OC(F)(F)F)cc3)c2)cc1SCC(F)(F)F [Compound 1B-65] | ≥ 50%
13 | Cc1cc(Br)c(N(C)C(=O)C(C)c2ccc(Cl)cc2)cc1SCC(F)(F)F (racemic) [Compound 1A-88] | ≥ 50%
14 | Cc1cc(Cl)c(NC(=O)Cc2ccc(C(F)(F)F)cc2)cc1SCC(F)(F)F [Compound 1A-60] | ≥ 50%
15 | Cc1cc(F)c(NC(=O)Cc2ccc(-c3ccc(Cl)c(Cl)c3Cl)cc2)cc1SCC(F)(F)F [Compound 1B-11] | ≥ 50%
16 | Cc1cc(F)c(N(C)C(=O)Cc2ccc(C(F)(F)F)cc2)cc1SCC(F)(F)F [Compound 1A-43] | ≥ 50%
17 | CCN(C(=O)Cc1ccc(SC)cc1)c1cc(SCC(F)(F)F)c(C)cc1F [Compound 1A-78] | ≥ 50%
18 | Cc1cc(F)c(NC(=O)Cc2c(F)cccc2F)cc1SCC(F)(F)F [Compound 1A-20] | ≥ 50%
19 | Cc1cc(F)c(N(C)C(=O)Cc2cccc(-c3ccc(C#N)cc3)c2)cc1SCC(F)(F)F [Compound 1B-96] | ≥ 50%
20 | CCCN(C(=O)Cc1ccc(C(F)(F)F)cc1)c1cc(SCC(F)(F)F)c(C)cc1F [Compound 1A-91] | ≥ 50%
21 | Cc1cc(Cl)c(NC(=O)Cc2ccc(Cl)cc2)cc1SCC(F)(F)F [Compound 1A-61] | ≥ 50%

Row | Structure (SMILES) | ovicidal rate of the two-spotted spider mites (mortality)
22 | Cc1cc(F)c(NC(=S)Cc2ccc(-c3cccc(C(F)(F)F)c3)cc2)cc1SCC(F)(F)F [Compound 1B-43] | ≥ 50%
23 | Cc1cc(F)c(N(C)C(=O)Cc2cccc(-c3cc(Cl)cc(Cl)c3)c2)cc1SCC(F)(F)F [Compound 1B-78] | ≥ 50%
24 | Cc1cc(F)c(NC(=O)C(c2ccc(Cl)cc2)C(C)C)cc1SCC(F)(F)F (racemic) [Compound 1A-33] | ≥ 50%
25 | Cc1cc(F)c(N(C)C(=O)Cc2ccc(-c3ccc(F)c(F)c3)cc2)cc1SCC(F)(F)F [Compound 1B-29] | ≥ 50%
26 | Cc1cc(F)c(N(C)C(=O)Cc2ccccc2-c2cccc(C(F)(F)F)c2)cc1SCC(F)(F)F [Compound 1B-49] | ≥ 50%
27 | Cc1cc(Br)c(N(C)C(=O)Cc2ccc(Cl)cc2)cc1SCC(F)(F)F [Compound 1A-50] | ≥ 50%
28 | Cc1cc(F)c(N(C)C(=O)Cc2ccc(-c3cccc(C(F)(F)F)c3)cc2)cc1SCC(F)(F)F [Compound 1B-34] | ≥ 50%
29 | CCN(C(=O)Cc1ccc(Cl)cc1)c1cc(SCC(F)(F)F)c(C)cc1Cl [Compound 1A-55] | ≥ 50%
30 | Cc1cc(F)c(N(C)C(=O)Cc2ccc(-c3ccc(F)c(F)c3F)cc2)cc1SCC(F)(F)F [Compound 1B-30] | ≥ 50%
31 | Cc1cc(F)c(NC(=O)Cc2ccc(Br)cc2)cc1SCC(F)(F)F [Compound 1A-23] | ≥ 50%
32 | CCN(C(=O)Cc1ccc(-c2ccccc2)cc1)c1cc(SCC(F)(F)F)c(C)cc1F [Compound 1A-96] | ≥ 50%
33 | CSc1ccc(CC(=O)Nc2cc(SCC(F)(F)F)c(C)cc2Br)cc1 [Compound 1A-77] | ≥ 50%
34 | Cc1cc(F)c(N(C)C(=O)Cc2ccc(OC(F)(F)F)cc2)cc1SCC(F)(F)F [Compound 1A-42] | ≥ 50%
35 | Cc1cc(F)c(NC(=O)Cc2cccc(-c3cc(Cl)cc(Cl)c3)c2)cc1SCC(F)(F)F [Compound 1B-70] | ≥ 50%
36 | CCSc1ccc(CC(=O)Nc2cc(SCC(F)(F)F)c(C)cc2F)cc1 [Compound 1B-1, 2-(4-(ethylthio)phenyl)-N-(2-fluoro-4-methyl-5-((2,2,2-trifluoroethyl)thio)phenyl)acetamide] | ≥ 50%
37 | Cc1cc(F)c(NC(=O)Cc2ccc(-c3cccc(Cl)c3)cc2)cc1SCC(F)(F)F [Compound 1B-12] | ≥ 50%
38 | Cc1cc(F)c(N(C)C(=O)C(F)(F)c2ccc(OC(F)(F)F)cc2)cc1SCC(F)(F)F [Compound 1B-87] | ≥ 50%
39 | CSc1ccc(CC(=O)N(C)c2cc(SCC(F)(F)F)c(C)cc2F)cc1 [Compound 1A-72] | ≥ 50%
40 | Cc1cc(F)c(N(C)C(=O)Cc2ccc(-c3cccc(OC(F)(F)F)c3)cc2)cc1SCC(F)(F)F [Compound 1B-35] | ≥ 50%
41 | Cc1cc(F)c(NC(=O)Cc2cccc(-c3ccc(Cl)cc3Cl)c2)cc1SCC(F)(F)F [Compound 1B-67] | ≥ 50%
42 | Cc1cc(F)c(NC(=O)C(C)c2ccc(Cl)cc2)cc1SCC(F)(F)F (racemic) [Compound 1A-90] | ≥ 50%

Row | Structure (SMILES) | ovicidal rate of the two-spotted spider mites (mortality)
43 | Cc1cc(F)c(N(C)C(=O)Cc2cccc(-c3cccc(F)c3)c2)cc1SCC(F)(F)F [Compound 1B-100] | ≥ 50%
44 | CSc1ccc(CC(=O)Nc2cc(SCC(F)(F)F)c(C)cc2F)cc1 [Compound 1A-76] | ≥ 50%
45 | Cc1cc(F)c(NC(=O)Cc2cccc(-c3cccc(Cl)c3)c2)cc1SCC(F)(F)F [Compound 1B-71] | ≥ 50%
46 | Cc1cc(F)c(NC(=O)Cc2cccc(-c3ccc(Cl)c(Cl)c3)c2)cc1SCC(F)(F)F [Compound 1B-69] | ≥ 50%
47 | Cc1cc(F)c(NC(=S)Cc2ccc(SCC(F)(F)F)cc2)cc1SCC(F)(F)F [Compound 1B-24] | ≥ 50%
48 | Cc1cc(F)c(N(C)C(=O)Cc2cccc(-c3cc(Cl)ccc3Cl)c2)cc1SCC(F)(F)F [Compound 1B-73] | ≥ 50%
49 | Cc1cc(F)c(N(C)C(=O)Cc2cccc(-c3ccc(Cl)cc3Cl)c2)cc1SCC(F)(F)F [Compound 1B-77] | ≥ 50%
50 | CSc1ccccc1-c1cccc(CC(=O)N(C)c2cc(SCC(F)(F)F)c(C)cc2F)c1 [Compound 1B-98] | ≥ 50%
51 | Cc1cc(F)c(N(C)C(=O)C(F)(F)c2ccc(SC(F)(F)F)cc2)cc1SCC(F)(F)F [Compound 1B-54] | ≥ 50%
52 | Cc1cc(F)c(NC(=O)C(F)c2ccc(C(F)(F)F)cc2)cc1SCC(F)(F)F (stereo not drawn) [Compound 1B-56] | ≥ 50%
53 | Cc1cc(F)c(N(C)C(=O)Cc2ccc(-c3cccc(Cl)c3Cl)cc2)cc1SCC(F)(F)F [Compound 1B-16] | ≥ 50%
54 | Cc1cc(F)c(N(C)C(=O)Cc2ccc(OC(F)F)cc2)cc1SCC(F)(F)F [Compound 1B-80] | ≥ 50%
55 | CCSc1ccc(-c2cccc(CC(=O)N(C)c3cc(SCC(F)(F)F)c(C)cc3F)c2)cc1 [Compound 1B-99] | ≥ 50%
56 | Cc1cc(Br)c(N(C)C(=O)Cc2ccc(OC(F)(F)F)cc2)cc1SCC(F)(F)F [Compound 1A-51] | ≥ 50%
57 | Cc1cc(F)c(NC(=O)Cc2cccc(-c3cccc(C(F)(F)F)c3)c2)cc1SCC(F)(F)F [Compound 1B-59] | ≥ 50%
58 | Cc1cc(F)c(NC(=O)Cc2ccc(Cl)cc2Cl)cc1SCC(F)(F)F [Compound 1A-8] | ≥ 50%
59 | CCCSc1ccc(CC(=O)N(C)c2cc(SCC(F)(F)F)c(C)cc2F)cc1 [Compound 1B-10] | ≥ 50%
60 | Cc1cc(F)c(N(C)C(=S)Cc2ccc(SCC(F)(F)F)cc2)cc1SCC(F)(F)F [Compound 1B-36] | ≥ 50%
61 | CSc1ccccc1-c1ccc(CC(=O)Nc2cc(SCC(F)(F)F)c(C)cc2F)cc1 [Compound 1A-67] | ≥ 50%
62 | Cc1ccc(CC(=O)Nc2cc(SCC(F)(F)F)c(C)cc2F)cc1 [Compound 1A-69] | ≥ 50%
63 | CCSc1ccc(-c2ccc(CC(=O)N(C)c3cc(SCC(F)(F)F)c(C)cc3F)cc2)cc1 [Compound 1B-17] | ≥ 50%
